Measurements published in publication PMC4451243.
No constants are given. Whether binding was seen depends on the method and setting. Binding seen in cells or lysates may run through a third protein. Some results given as binding are weak or reduced against the parent protein; the word gives no strength. For some of these results: Tags and fused reporters may be left off the sequences shown.

The chains behind the UniProt entries cited, without tags or fusion partners.
UniProt P11387: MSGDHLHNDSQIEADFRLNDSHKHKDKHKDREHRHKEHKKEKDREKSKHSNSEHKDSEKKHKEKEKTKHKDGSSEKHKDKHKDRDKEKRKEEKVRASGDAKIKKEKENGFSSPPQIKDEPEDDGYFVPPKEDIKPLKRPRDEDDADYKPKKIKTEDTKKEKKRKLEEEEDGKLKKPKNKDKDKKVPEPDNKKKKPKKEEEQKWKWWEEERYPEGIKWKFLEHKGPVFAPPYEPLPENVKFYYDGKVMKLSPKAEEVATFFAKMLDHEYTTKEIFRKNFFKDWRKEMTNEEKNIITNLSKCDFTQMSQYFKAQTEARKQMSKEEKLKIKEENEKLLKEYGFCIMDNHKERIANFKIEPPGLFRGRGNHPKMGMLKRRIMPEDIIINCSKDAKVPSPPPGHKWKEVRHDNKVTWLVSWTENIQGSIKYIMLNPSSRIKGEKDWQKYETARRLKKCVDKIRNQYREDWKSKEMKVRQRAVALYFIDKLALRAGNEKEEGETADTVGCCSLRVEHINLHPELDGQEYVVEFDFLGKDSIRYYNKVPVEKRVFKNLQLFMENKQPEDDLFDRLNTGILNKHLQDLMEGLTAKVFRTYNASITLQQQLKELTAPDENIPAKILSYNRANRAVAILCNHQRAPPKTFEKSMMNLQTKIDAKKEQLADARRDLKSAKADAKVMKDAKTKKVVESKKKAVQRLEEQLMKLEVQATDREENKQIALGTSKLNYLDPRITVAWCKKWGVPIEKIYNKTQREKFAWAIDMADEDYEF
UniProt Q00839: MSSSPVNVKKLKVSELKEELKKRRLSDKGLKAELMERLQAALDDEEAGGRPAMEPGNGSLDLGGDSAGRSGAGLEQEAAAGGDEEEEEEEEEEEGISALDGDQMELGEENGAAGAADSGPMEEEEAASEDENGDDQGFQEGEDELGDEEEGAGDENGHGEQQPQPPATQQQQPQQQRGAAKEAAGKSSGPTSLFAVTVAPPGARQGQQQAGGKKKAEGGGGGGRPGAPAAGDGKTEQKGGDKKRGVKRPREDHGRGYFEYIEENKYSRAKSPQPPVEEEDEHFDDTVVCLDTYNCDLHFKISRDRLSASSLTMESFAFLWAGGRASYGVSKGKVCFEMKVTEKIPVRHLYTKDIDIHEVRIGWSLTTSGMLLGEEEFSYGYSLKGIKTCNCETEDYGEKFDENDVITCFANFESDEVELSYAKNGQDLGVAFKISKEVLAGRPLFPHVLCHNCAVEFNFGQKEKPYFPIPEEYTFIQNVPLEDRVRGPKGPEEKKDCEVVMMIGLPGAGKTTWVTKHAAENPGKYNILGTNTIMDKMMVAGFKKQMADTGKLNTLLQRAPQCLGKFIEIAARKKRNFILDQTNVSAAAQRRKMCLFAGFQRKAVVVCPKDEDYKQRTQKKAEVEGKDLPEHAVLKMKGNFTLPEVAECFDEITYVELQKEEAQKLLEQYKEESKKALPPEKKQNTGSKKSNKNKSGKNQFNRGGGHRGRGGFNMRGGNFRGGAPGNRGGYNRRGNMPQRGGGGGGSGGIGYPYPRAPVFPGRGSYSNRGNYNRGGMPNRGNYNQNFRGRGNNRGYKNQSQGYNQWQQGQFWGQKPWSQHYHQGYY
UniProt O43242: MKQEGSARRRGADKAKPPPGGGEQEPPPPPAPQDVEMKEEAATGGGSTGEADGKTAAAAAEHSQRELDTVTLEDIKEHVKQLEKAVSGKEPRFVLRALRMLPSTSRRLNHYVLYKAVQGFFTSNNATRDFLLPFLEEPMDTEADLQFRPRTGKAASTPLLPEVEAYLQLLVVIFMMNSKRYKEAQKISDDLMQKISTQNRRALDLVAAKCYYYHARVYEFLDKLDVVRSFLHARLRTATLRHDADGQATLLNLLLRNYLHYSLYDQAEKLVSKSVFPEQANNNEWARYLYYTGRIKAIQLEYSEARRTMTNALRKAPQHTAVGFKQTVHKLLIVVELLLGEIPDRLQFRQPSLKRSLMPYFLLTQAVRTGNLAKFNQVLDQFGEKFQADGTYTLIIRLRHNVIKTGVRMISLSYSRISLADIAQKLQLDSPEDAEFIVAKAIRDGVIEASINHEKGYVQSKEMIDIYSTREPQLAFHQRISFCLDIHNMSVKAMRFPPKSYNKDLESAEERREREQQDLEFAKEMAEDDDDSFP
UniProt O00571: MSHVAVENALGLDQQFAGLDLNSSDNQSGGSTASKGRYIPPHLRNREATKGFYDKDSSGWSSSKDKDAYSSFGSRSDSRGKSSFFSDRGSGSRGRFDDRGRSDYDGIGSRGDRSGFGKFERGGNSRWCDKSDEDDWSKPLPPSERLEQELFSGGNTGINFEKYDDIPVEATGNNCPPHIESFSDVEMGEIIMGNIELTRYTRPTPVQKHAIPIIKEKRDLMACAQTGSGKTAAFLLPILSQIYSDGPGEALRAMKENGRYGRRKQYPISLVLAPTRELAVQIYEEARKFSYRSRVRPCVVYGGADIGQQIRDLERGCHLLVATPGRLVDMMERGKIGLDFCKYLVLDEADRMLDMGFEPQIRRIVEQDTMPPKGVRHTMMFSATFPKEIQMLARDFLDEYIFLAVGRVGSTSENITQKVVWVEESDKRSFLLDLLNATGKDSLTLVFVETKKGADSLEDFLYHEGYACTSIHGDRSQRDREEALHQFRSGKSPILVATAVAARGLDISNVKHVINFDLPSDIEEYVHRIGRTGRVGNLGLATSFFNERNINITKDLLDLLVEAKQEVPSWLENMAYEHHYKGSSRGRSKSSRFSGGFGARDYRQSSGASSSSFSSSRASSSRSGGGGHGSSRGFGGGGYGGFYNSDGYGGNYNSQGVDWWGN
UniProt Q86VP6: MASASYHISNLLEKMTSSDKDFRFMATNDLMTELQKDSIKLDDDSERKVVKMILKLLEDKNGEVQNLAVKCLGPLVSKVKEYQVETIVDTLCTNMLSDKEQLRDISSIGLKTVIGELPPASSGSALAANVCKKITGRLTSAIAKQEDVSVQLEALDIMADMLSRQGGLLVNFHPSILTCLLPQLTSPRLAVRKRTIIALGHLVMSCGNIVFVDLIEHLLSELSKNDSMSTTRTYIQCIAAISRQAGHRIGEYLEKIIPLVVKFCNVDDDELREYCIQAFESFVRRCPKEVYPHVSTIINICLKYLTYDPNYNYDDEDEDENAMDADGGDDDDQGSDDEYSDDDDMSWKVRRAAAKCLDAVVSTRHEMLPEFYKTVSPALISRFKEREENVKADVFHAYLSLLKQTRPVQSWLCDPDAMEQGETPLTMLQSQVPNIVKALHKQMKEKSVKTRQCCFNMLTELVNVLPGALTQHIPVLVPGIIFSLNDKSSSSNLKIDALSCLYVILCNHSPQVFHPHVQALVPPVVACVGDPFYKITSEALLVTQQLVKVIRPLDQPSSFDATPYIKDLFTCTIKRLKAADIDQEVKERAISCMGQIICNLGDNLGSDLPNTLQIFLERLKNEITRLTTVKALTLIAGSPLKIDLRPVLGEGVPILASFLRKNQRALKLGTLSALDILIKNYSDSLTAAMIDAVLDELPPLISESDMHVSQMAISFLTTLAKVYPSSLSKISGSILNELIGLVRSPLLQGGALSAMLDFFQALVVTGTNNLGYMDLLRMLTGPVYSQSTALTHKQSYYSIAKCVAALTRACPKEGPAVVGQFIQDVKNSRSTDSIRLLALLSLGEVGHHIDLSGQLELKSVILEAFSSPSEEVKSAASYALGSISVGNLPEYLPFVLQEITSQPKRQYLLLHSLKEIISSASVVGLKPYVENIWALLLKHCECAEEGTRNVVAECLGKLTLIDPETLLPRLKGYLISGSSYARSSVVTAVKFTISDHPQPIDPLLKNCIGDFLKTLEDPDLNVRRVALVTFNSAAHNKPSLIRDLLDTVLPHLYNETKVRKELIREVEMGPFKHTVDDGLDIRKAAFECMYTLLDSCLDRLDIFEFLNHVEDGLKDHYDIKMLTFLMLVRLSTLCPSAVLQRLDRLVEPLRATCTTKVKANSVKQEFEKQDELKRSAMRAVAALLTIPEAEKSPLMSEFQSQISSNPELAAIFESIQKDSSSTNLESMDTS
UniProt Q03468: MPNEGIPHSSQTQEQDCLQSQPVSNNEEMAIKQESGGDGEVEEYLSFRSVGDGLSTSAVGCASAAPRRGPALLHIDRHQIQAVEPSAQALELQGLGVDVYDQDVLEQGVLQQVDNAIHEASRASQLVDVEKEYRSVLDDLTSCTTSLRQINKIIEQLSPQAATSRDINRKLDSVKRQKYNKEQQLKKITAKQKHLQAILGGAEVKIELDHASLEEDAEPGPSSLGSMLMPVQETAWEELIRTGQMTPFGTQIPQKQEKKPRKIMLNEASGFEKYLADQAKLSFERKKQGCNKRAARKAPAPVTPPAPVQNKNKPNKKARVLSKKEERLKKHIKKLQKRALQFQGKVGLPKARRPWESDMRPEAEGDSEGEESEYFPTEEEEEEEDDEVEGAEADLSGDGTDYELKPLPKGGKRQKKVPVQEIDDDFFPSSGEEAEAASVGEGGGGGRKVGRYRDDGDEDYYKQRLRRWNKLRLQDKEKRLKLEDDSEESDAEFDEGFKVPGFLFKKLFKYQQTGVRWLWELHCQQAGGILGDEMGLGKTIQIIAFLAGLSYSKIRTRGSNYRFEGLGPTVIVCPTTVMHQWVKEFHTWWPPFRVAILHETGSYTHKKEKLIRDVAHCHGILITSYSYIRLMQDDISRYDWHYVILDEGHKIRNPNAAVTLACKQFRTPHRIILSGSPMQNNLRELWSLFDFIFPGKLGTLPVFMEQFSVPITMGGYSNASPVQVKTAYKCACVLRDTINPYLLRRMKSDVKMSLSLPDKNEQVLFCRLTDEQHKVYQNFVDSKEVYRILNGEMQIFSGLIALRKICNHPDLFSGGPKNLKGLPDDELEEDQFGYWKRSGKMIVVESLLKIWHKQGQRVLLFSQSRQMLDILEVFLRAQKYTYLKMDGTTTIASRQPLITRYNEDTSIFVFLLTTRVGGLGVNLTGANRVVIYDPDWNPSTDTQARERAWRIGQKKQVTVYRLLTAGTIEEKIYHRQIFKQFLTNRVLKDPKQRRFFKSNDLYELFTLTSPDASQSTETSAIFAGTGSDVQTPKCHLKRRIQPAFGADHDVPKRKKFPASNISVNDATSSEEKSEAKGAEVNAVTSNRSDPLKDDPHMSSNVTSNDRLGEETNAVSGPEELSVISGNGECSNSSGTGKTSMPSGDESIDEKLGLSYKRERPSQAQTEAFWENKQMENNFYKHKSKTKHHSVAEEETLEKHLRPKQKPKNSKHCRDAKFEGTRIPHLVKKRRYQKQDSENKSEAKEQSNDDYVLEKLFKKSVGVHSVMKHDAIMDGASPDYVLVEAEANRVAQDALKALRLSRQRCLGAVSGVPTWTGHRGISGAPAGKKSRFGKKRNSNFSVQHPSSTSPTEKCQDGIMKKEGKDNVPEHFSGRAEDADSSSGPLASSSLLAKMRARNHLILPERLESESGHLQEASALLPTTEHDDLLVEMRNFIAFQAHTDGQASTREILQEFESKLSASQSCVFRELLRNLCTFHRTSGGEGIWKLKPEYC

Experiments:
Assay in all cases: co-IP; lysates (RIPA buffer) of CSIAN cells co-transfected with Flag-tagged CSB and a Myc-tagged protein, 24 hr post transfection; anti-c-myc agarose overnight; Western blot with anti-Flag
Myc-tagged TOP1 (human) = Myc-tagged TOP1 (human) (UniProt P11387)
[1] = molecular target: Myc-tagged HNRNPU (human) (UniProt Q00839)
Myc-tagged PSMD3 (human) = Myc-tagged PSMD3 (human) (UniProt O43242)
Myc-tagged PRPF3 (human) = molecular target: T1, Myc-tagged PRPF3 (human) (UniProt O43395)
T1 sequence: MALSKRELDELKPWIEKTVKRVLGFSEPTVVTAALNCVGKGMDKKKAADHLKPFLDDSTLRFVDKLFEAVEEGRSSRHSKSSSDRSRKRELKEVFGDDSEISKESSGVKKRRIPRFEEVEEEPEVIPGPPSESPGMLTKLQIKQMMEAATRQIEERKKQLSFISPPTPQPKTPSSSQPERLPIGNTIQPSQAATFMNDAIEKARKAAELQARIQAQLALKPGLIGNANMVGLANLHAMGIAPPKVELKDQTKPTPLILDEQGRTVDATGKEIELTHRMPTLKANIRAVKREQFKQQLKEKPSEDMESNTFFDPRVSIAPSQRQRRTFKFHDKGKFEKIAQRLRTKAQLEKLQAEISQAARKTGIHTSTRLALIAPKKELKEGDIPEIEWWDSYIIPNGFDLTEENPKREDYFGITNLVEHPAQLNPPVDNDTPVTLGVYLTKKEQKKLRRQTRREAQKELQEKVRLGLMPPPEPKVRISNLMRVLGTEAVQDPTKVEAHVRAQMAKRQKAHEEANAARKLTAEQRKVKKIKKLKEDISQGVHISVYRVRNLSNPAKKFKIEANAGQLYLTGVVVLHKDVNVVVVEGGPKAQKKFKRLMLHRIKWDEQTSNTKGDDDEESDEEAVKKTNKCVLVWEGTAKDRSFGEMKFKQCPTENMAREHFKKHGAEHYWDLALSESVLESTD

Myc-tagged DDX3X (human) = Myc-tagged DDX3X (human) (UniProt O00571)
Myc-tagged CAND1 (human) = Myc-tagged CAND1 (human) (UniProt Q86VP6)
Myc-tagged SFPQ (human) = molecular target: T2, Myc-tagged SFPQ (human) (UniProt P23246)
T2 sequence: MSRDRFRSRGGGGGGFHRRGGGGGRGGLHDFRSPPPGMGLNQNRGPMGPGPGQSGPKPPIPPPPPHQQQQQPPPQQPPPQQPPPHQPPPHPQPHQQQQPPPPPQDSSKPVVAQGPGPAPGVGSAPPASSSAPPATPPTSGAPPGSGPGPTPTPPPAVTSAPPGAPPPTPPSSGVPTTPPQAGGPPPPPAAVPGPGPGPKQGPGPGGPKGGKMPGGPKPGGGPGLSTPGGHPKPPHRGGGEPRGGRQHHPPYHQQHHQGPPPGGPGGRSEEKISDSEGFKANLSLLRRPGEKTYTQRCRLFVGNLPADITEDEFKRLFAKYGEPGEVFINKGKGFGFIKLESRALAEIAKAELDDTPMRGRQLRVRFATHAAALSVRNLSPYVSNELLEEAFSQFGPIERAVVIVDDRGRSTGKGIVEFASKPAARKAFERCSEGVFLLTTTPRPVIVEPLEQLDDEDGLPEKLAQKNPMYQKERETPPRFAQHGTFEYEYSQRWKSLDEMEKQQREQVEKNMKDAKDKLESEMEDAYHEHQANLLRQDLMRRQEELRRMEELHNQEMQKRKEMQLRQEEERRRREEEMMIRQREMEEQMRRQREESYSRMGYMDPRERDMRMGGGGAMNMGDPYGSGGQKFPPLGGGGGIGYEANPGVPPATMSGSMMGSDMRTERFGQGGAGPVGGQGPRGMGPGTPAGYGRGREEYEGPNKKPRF

binding (Myc-tagged TOP1 (human)): binds
binding [1]: binds
binding (Myc-tagged PSMD3 (human)): binds
binding (Myc-tagged PRPF3 (human)): binds
binding (Myc-tagged DDX3X (human)): binds
binding (Myc-tagged CAND1 (human)): binds
binding (Myc-tagged SFPQ (human)): binds
Substance: Flag-tagged CSB (from UniProt Q03468 1-1493)
